Patent US20200155631A1, “METHOD OF STABILIZING MIND AND BODY WITH DISTILLED EXTRACT OF MOUNTAIN-CULTIVATED PANAX GINSENG” (Jayeonae Co., Ltd., priority 2018, published 2020)

Assay: Olfactory test (GC-MS olfactory detection port sniffing test, three skilled experimenters)
Conditions: olfactory test of volatile flavor components

| Compound | flavor character |
| --- | --- |
| C=C[C@]1(C)CC[C@@H](C(=C)C)C[C@H]1C(=C)C [β-Elemene] | herb flavor |
| Cc1nc(C)c(C)nc1C [2,3,5,6 Tetramethyl pyrazine, 2,3,5,6-tetramethylpyrazine] | sweet flavor |
| CC(C)c1ccc(C=O)cc1 [4-1-Methyl ethyl benzaldehyde] | sweet flavor |
